Data on 1 substance can be found in patent US8629101B2 (priority 2007, dated 2014).

The data set in a line: general procedure: Fmoc solid-phase peptide synthesis; Champion PEG-PS resin derivatized with Fmoc-Rink linker; HBTU/DIEA. As to conditions: lipidation step.

Regarding “Ac-WMEWDREINNYTSLIHSLIEESQNQQEKNEQELLGSGC(Cholesteryl)-NH2”, the step yield is listed as 48%.
